Library screening results

The values are deposited in ChEMBL (CHEMBL3988442, “University of Dundee, Small-Polar-MMV Screening Library” (2021)).

A: 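Whole-cell assay for inhibitors of Mycobacterium tuberculosis growth, labelled Cornell in the record; the read-out is not stated. The concentration is filed as 10 mM, unlikely as a test dose, so the dose is not known. Higher means stronger inhibition (inferred from two other growth screens of the library). Of about 53,000 compounds tested this way, about 900 (1.7%) reached 50% or more in at least one test.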
B: 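Assay on Mycobacterium tuberculosis, filed only as a heat shock assay from Cornell; the read-out is not stated. The concentration is filed as 10 mM, unlikely as a test dose, so the dose is not known. The record gives no direction; compounds that gave an IC50 in retests scored well above the rest, so higher reads as stronger inhibition. Size under these conditions: about 69,000 compounds, about 930 of them at 50% or above in at least one test.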

The filed quantity is “Percent Effect” (%). The controls that fix the scale are not given in the record; negative values are as filed. The compounds are a random part of those screened.

* Cc1ncsc1C(=O)NCCNC(=O)Cc1cccc(F)c1 : B: -10.14%
* Cc1cc(C)cc(Nc2nc(C)cc(=O)n2CC(=O)NC(C)C)c1 : A: 16.62%; B: 5.735%
* Cc1nn(C)c(C)c1CC(=O)N1CCc2nnc(N(C)C)cc2C1 : B: 17.9%
* COc1ccccc1OCCCN(C)c1cc(C)nc(N)n1 : B: 5.711%
* Cc1cc(C)n(C2CCCN(C(=O)Cc3csc(C)n3)C2)n1 (stereo unspecified) : A: 24.22%; B: -1.69%
* [H][C@@]12CN(c3ncc(C)cn3)C[C@@]1([H])N(C)C(=O)CO2 : A: 23.13%; B: 6.884%
* O=C(O)C(F)(F)F.[H][C@]12CCC[C@@H](CN(C)C)[C@@]1([H])CN(c1nccc(C(F)(F)F)n1)C2 : B: -35.33%
* [H][C@@]12CCCN1C[C@H](CCSC)N(Cc1coc3ccc(C)cc3c1=O)C2 : A: -0.425%; B: 6.455%
* Cc1cc(NC(=O)CNC(C)(C)c2ccc3c(c2)OCO3)on1 : A: 1.263%; B: 3.566%
* CC(C)(C)n1ncc2c1NC(=O)CC2c1cccs1 (stereo unspecified) : A: 25.67%; B: 7.365%
* CNC(=O)c1ccc2c(c1O)OC(C)(C)C2 : A: 19.1%; B: 16.8%
* CCCNC(=O)Cn1nc(C)c2cnn(C(C)(C)C)c2c1=O : A: 4.15%; B: 9.69%
* O=C(COc1ccccc1)N(Cc1ccncc1)C1CC1 : A: 19.6%; B: -28.38%
* CCCN1CCC(c2nc3ccc(-c4ccncc4)cn3n2)CC1.O=C(O)C(F)(F)F.O=C(O)C(F)(F)F : A: -17.17%; B: 39.67%
* Cc1noc(C)c1C(=O)N(C)C(C)c1ccncc1 (stereo unspecified) : A: 4.84%; B: -3.896%
* COc1ccccc1C(=O)N1CCC(O)(c2cccc(C)c2C)CC1 : A: -34.68%; B: -26.84%
* CN(C)Cc1cnc2n1CCN(C(=O)NCc1ccccc1)CC2.O=C(O)C(F)(F)F : A: 23.81%; B: -24.39%
* Cc1cccc(-c2ccc(C(=O)NCC(C)(C)C(N)=O)c(=O)[nH]2)c1 : A: 0.906%; B: -3.397%
* O[C@@H]1CN(Cc2cnccn2)C[C@H]1Oc1ccccc1 : A: 1.323%; B: -11.12%
* O=C(Nc1cccnc1)NC1CCN(c2ccccc2OC(F)F)C1 (stereo unspecified) : B: -137.3%
* Cc1cnn(C(C)C2CC2)c1NC(=O)c1ccc(Cn2cnnn2)cc1 (stereo unspecified) : B: -0.7454%
* Cc1ccccc1C(NC(=O)CNC(=O)c1ccoc1C)C(C)C (stereo unspecified) : A: -34.6%; B: -0.09071%
* Cc1ccccc1C1CCCN(C(=O)c2c[nH]c(=O)c(Cl)c2)C1 (stereo unspecified) : A: 33.2%; B: 0.025%
* Cc1nc2cc(=O)[nH]n2c(C)c1CC(=O)Nc1cnn(C(C)(C)C)c1 : B: -5.05%
* CCOc1nnc(CN2CCC(N(C)Cc3noc(C)n3)C2)s1 (stereo unspecified) : A: 22.04%; B: -0.2147%
* COCC(=O)N1CC(C(=O)NCC2CC2)C2(CCOCC2)C1 (stereo unspecified) : A: -10.82%; B: 8.8%
* CS(=O)(=O)c1ccc(-c2nc(C(=O)N3CCCC3)n3ccccc23)cc1 : B: -19.74%
* Cc1ccc(C2(CN3CCN(Cc4cn(C)nc4C)CC3)CC2)cc1.Cl : A: 56.88%; B: 5.814%
* [H][C@]12CC[C@](O)(CC1)C(CO)N2C(=O)Nc1ccccc1 (stereo partly specified) : A: -13.03%; B: -13.23%
* Cc1ccoc1C(=O)N1CC(C(=O)NCC2CC2)C2(CCOCC2)C1 (stereo unspecified) : A: -21.88%; B: -6.735%
* CCn1c(C)nnc1SCCNC(=O)c1cnc(C(C)(C)C)nc1O : A: -7.378%; B: -23.32%
* Cc1cc(-c2cnc(N3CCNC(=O)C3)nc2-c2sccc2C)on1 : A: 17.68%; B: 9.529%
* CC(=O)NCCCNCc1cc(F)ccc1Br : A: -19.67%; B: -4.724%
* Cc1nnc(NC(=O)CN2CCc3nn(C(C)C)c(=O)cc3C2)s1 : B: -5.287%
* COC(=O)CNC(=O)c1sccc1N(C)S(=O)(=O)c1ccc(Cl)cc1 : B: -31.29%
* COc1ccc(-c2nnc(SC(C)C(=O)NCC(C)C)[nH]2)c(OC)c1 (stereo unspecified) : A: 2.807%; B: 21.58%
* CN1CC(=O)N(c2cccc(F)c2)CC12CCN(Cc1ccco1)C2 (stereo unspecified) : A: 4.369%; B: 26.82%
* CCn1nnc(NCc2ccc(-c3ccc(Br)cc3)o2)n1 : A: 69.94%; B: 12.26%
* N#Cc1cc2c(=O)n(CC(O)c3cccc(O)c3)ccc2[nH]c1=O (stereo unspecified) : B: -6.204%
* [H][C@@]12CCN(C(=O)COc3ccccc3OC)C[C@]1(COC)CCO2 : A: 18.47%; B: 5.142%
* O=C(CC1CCCCC1)N1CCN(C(=O)NCc2ccccn2)CC1 : B: -17.77%
* CC(=O)N[C@@H]1CN(c2nc(C(N)=O)cs2)C[C@H]1c1ccc(C)o1 : A: 20.05%; B: -3.275%
* COc1cc(C)c(C(C)NC(=O)c2cccnc2N(C)C)cc1OC (stereo unspecified) : B: -6.005%
* CN(C)C(=O)COCC1CN(Cc2cccs2)Cc2ncn(C)c21.O=C(O)C(F)(F)F.O=C(O)C(F)(F)F (stereo unspecified) : B: -34.33%